Results: paper PMC7819943, “Rice protein-binding microarrays: a tool to detect cis-acting elements near promoter regions in rice”
The list shows a part of the results.

Each sequence was assayed against T1, OsSMF1 (Oryza sativa, UniProt Q6ZLB0 1-436) (assay: protein-binding microarray (RPBM); PBS, 2% BSA, 51.3 ng/ul salmon testes DNA, 50 uM zinc acetate, 200 nM TF, 25 C, 1 h; high values mean tight binding). Conditions: protein: recombinant; tags: N-terminal polyhistidine and DsRed monomer fusion (pET32a); chain copies: 2; label: CyDye5-dUTP incorporated in the synthesized complementary strand; 3' TTTTT single-stranded linker to array surface; dsDNA, one strand shown.
T1 sequence: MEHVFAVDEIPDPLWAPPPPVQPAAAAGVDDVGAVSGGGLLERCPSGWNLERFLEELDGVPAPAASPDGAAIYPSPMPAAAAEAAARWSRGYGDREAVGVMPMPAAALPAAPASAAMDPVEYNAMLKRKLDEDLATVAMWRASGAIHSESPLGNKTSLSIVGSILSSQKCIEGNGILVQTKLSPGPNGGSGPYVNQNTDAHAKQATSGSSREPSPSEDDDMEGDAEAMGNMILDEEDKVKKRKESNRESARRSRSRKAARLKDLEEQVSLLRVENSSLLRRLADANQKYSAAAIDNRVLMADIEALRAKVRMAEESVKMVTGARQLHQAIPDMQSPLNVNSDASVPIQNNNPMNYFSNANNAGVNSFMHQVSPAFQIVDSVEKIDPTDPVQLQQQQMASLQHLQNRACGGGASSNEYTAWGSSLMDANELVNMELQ
Procedure, shortened: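 Transcription factors were made in E. coli BL21-CodonPlus as N-terminal fusions to a polyhistidine tag and DsRed, then purified on Ni–NTA. After primer extension with Cy5-dUTP and blocking with 2% BSA, a custom Agilent array was exposed for 1 h at 25 °C to 200 nM protein in PBS, 2% BSA, salmon testes DNA and 50 µM zinc acetate. Washed arrays were scanned on an Axon 4000B, and the binding signal is per-feature fluorescence intensity in arbitrary units.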

Q: How did the binding signal turn out when “TATTTTATATTAGTGTTCAAACGTTCGATGTGACATGTGTCGGAGTCACCTAGTGCAG” was run?
A: Its binding signal is 3930 fluorescence intensity (a.u.).

Q: For “CAGATAAGCTTCAGATTAAGAGCAGGTATAATAGCAGGCTCGGAGTCACCTAGTGCAG”, which binding signal is on record?
A: Its binding signal is 3220 fluorescence intensity (a.u.).

Q: With “TAACTTAACTGTCCTGCTTACTCATTGGATGAATTGACAGCGGAGTCACCTAGTGCAG” as the sequence, how does the binding signal read?
A: Its binding signal is 3650 fluorescence intensity (a.u.).

Q: For “AGGGGAAAGGGGAATTGACGTGGCAAGCCCACATGTGGGTCGGAGTCACCTAGTGCAG”, which binding signal is on record?
A: Its binding signal is 15300 fluorescence intensity (a.u.).

Q: With “ACAATGTGCCTTGATGGCGTAGAATGCAAGAGCTCACTATCGGAGTCACCTAGTGCAG” as the sequence, how does the binding signal read?
A: The binding signal was 3190 fluorescence intensity (a.u.).

Q: How did the binding signal turn out when “CGTCGCTCTCGTCCCTGGCGATCTCCACGCCGACGCCCCGCGGAGTCACCTAGTGCAG” was run?
A: The binding signal was 3200 fluorescence intensity (a.u.).

Q: For “CGCCTCTGCGGTCTCCTTCGTCACCCGCGCGTCAACCAACCGGAGTCACCTAGTGCAG”, which binding signal is on record?
A: The binding signal was 4290 fluorescence intensity (a.u.).

Q: “TTCGAACGAACTTGGCCACGTGTAACAAAGATTTAGCATGCGGAGTCACCTAGTGCAG” was tested. Which binding signal did it give?
A: Its binding signal is 12200 fluorescence intensity (a.u.).

Q: With “TACGGTCTGAACACCCATGTCATCAAATTGGTTGCCCCAACGGAGTCACCTAGTGCAG” as the sequence, how does the binding signal read?
A: Its binding signal is 6280 fluorescence intensity (a.u.).

Q: With “TTCTTCAGTTTGGTAATGTTCCAAAGCCAGATTATGTGTACGGAGTCACCTAGTGCAG” as the sequence, how does the binding signal read?
A: Its binding signal is 3820 fluorescence intensity (a.u.).

Q: How did the binding signal turn out when “CGCAGCAAGCGTCACGTCACCAACTGTTTGCTCCAACTGTCGGAGTCACCTAGTGCAG” was run?
A: The binding signal was 9370 fluorescence intensity (a.u.).

Q: Which binding signal does the source give for “GTATAAAATCAGATGGGTTTGTAGTTAGGGTACAAATTTCCGGAGTCACCTAGTGCAG” here?
A: The binding signal was 3170 fluorescence intensity (a.u.).

Q: For “AGTCAGTCCGAATTGGACTGTGCCGGCATTGTCATCGCATCGGAGTCACCTAGTGCAG”, which binding signal is on record?
A: Its binding signal is 4760 fluorescence intensity (a.u.).

Q: Which binding signal does the source give for “CTGGTCGGTTCCGCTGACCACCCGTGACTCTTACCACGACCGGAGTCACCTAGTGCAG” here?
A: Its binding signal is 3150 fluorescence intensity (a.u.).

Q: How did the binding signal turn out when “AAGCCAAAACTGCTGGCATCACGGCTGATGTCACGGTCTCCGGAGTCACCTAGTGCAG” was run?
A: The binding signal was 8750 fluorescence intensity (a.u.).

Q: How did the binding signal turn out when “GTAATTAGTTATTTGAGTAAAGTGTACGGGCGATCCTTAACGGAGTCACCTAGTGCAG” was run?
A: The binding signal was 3530 fluorescence intensity (a.u.).

Q: For “TTGGACTTTAGTGGAGTAGTCATCAATCATTAATGGTTGCCGGAGTCACCTAGTGCAG”, which binding signal is on record?
A: The binding signal was 4040 fluorescence intensity (a.u.).

Q: Which binding signal does the source give for “CGAACCATCGCGTCGCGTCCCCGTGTCTGTCGAGCGAGATCGGAGTCACCTAGTGCAG” here?
A: The binding signal was 3280 fluorescence intensity (a.u.).

Q: How did the binding signal turn out when “TGAATTCTTATTTCAGCTATTAAAATCTGCACGTCAATTCCGGAGTCACCTAGTGCAG” was run?
A: Its binding signal is 3960 fluorescence intensity (a.u.).

Q: For “GTCGGATTGGTGCTTGCATGATCTGTTGGTAGATGGGCTGCGGAGTCACCTAGTGCAG”, which binding signal is on record?
A: The binding signal was 3180 fluorescence intensity (a.u.).

Q: Which binding signal does the source give for “CCCTCCGTGGACACGTGTAGTCTATCCACCAAGTACACAGCGGAGTCACCTAGTGCAG” here?
A: The binding signal was 5990 fluorescence intensity (a.u.).

Q: Which binding signal does the source give for “TAGTGTCAACCGAATATGACTGGGCTATCTGTTCGTTTCTCGGAGTCACCTAGTGCAG” here?
A: The binding signal was 4700 fluorescence intensity (a.u.).

Q: For “CAATAGAAGGCCCAAAGCTGATTCAGCGAGCCGTTCTCGCCGGAGTCACCTAGTGCAG”, which binding signal is on record?
A: Its binding signal is 3400 fluorescence intensity (a.u.).
